Experimental data published in PubChem BioAssay AID485298 (National Center for Advancing Translational Sciences (NCATS), 2010).
Hit rate of the full screen: of about 320,000 compounds, about 740 (0.23%) were called active. The shares of active, inactive and inconclusive entries below differ from those in the screen. Calls follow the shape of the dose curve; as a rule, active = well fitted activation curve with a large enough effect; inconclusive = small, poorly fitted or top-dose-only effect; inactive = no such curve, though single readings can be large or run the other way. Where the call is inconclusive, the potency comes from a doubtful curve fit.

test: qHTS Assay for Small Molecule Inhibitors of Mitochondrial Division or Activators of Mitochondrial Fusion; also: nearly all actives have a fitted effect of over 45% in size;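 as to growth rescue (activation): temperature-sensitive fusion mutants such as fzo1-1 at 37 °C on non-fermentable ethanol glycerol medium; % of control where 0% means no effect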; conditions: S. cerevisiae fusion-defective mutant growth rescue, CellTiterGlo 48 h; growth rescue (activation): at 46.1 µM (top of the series) unless noted
Outline: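 Growth-rescue viability read-out: after 48 h at the non-permissive 37C in glycerol/ethanol YPEG, yeast mitochondrial fusion mutants are measured by CellTiterGlo luminescence; compounds (23 nl pinned per well) restoring growth score as division inhibitors or fusion activators.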
Potency is read from the fitted curve at half-maximal effect.

SMILES | Potency | growth rescue (activation)
COC(=O)c1ccc(CN2[C@H](C(=O)OC)C[C@@]3(O)[C@H](O)[C@H](O)[C@H](O)C[C@@H]23)cc1 | inconclusive: 35.5 µM [activator, partial curve] | 
CCc1ccc(C(C)NC(=O)/C(C#N)=C\c2cn[nH]c2-c2ccccc2)cc1 (stereo not given) | inconclusive: 20 µM [activator, partial curve] | 
O=C(c1ccc(Br)o1)N(Cc1ccccc1)Cc1ccccc1 | inconclusive: 15.8 µM [activator, single point] | 
COc1ccc(OC)c(C2=C/C(=C/c3ccccn3)C(=O)O2)c1 | inconclusive: 35.5 µM [activator, single point] | 
O=C(Nc1cc(C(F)(F)F)ccc1-n1cncn1)c1ccc(Cl)cc1 |  | inactive: 7.83%
CC(Nc1nc(-c2ccccc2O)nc2ccccc12)c1ccccc1 (stereo not given) | inconclusive: 1.78 µM [activator, partial curve] | 
CC1=C(C(=O)OC2CCCCC2)C(c2cccnc2)n2nnnc2N1 (stereo not given) | inconclusive: 6.31 µM [activator, full curve] | 
Cc1ccc(NC(=O)COc2cccc3ccc(C)nc23)c(Br)c1 | inconclusive: 22.4 µM [activator, single point] | 
CCOc1ccc2[nH]c3ncccc3c(=O)c2c1 |  | inactive: 8.87%
Cc1ccc(OCC(=O)NNC(=S)NC(=O)c2ccc(Br)o2)c(C)c1 |  | inactive: -11%
COCCCNC(=O)Cc1c(C)c2c(cc(C)c3c(C(C)(C)C)coc32)oc1=O | inconclusive: 35.5 µM [activator, single point] | 
CCOCCC(=O)Nc1nnc(CCc2ccccc2)s1 |  | inactive: -1.58%
N#Cc1cccc(OCC(=O)NC(=O)NCc2ccccc2)c1 | inconclusive: 15.8 µM [activator, single point] | 
COc1ccccc1C(=O)ON=C1c2ccccc2-c2ccccc21 | inconclusive: 12.6 µM [activator, partial curve] | 
CC(C)=C1C2CCC1C(C(=O)Nc1sc(C)c(-c3ccc(C(C)C)cc3)c1C(N)=O)C2C(=O)O (stereo not given) | inconclusive: 31.6 µM [activator, single point] | 
CC(C)(C)NC(=O)CON=C1c2ccccc2-c2ccccc21 | inconclusive: 17.8 µM [activator, single point] | 
O=C(NC(=S)Nc1ccccc1N1CCCC1)c1ccc([N+](=O)[O-])cc1 | inconclusive: 31.6 µM [activator, single point] | 
COc1ccccc1/C=C/c1nc(S(=O)(=O)c2ccccc2)c(N2CCC(C(N)=O)CC2)o1 | active: 35.5 µM | 
O=C(CSc1ncnc2ccccc12)Nc1cc(S(=O)(=O)N2CCCCC2)ccc1Cl | inconclusive: 15.8 µM [activator, single point] | 
Cc1ccc(-c2cc(C(F)F)n3ncc(C(=O)N4CCN(c5ccccn5)CC4)c3n2)cc1 | inconclusive: 35.5 µM [activator, single point] | 
CCOc1ccc(OCC)c(NC(=O)Nc2ccc3c(c2)N(C)C(=O)CS3)c1 | inconclusive: 31.6 µM [activator, single point] | 
O=C(Nc1ccc2c(c1)OCO2)c1ccc(Cl)cc1Cl |  | inactive: -3.58%
Cc1ccc(Oc2c(C(N)=O)cc([N+](=O)[O-])cc2[N+](=O)[O-])cc1 |  | inactive: 11.2%

Quoted from the results shown for reference:
SMILES | Potency | growth rescue (activation)
O=C(Nc1cc(C(F)(F)F)ccc1-n1cncn1)c1ccc(Cl)cc1 |  | inactive: 7.83%
CC(Nc1nc(-c2ccccc2O)nc2ccccc12)c1ccccc1 (stereo not given) | inconclusive: 1.78 µM [activator, partial curve] | 
CC1=C(C(=O)OC2CCCCC2)C(c2cccnc2)n2nnnc2N1 (stereo not given) | inconclusive: 6.31 µM [activator, full curve] | 
Cc1ccc(NC(=O)COc2cccc3ccc(C)nc23)c(Br)c1 | inconclusive: 22.4 µM [activator, single point] | 
CCOc1ccc2[nH]c3ncccc3c(=O)c2c1 |  | inactive: 8.87%
Cc1ccc(OCC(=O)NNC(=S)NC(=O)c2ccc(Br)o2)c(C)c1 |  | inactive: -11%
COCCCNC(=O)Cc1c(C)c2c(cc(C)c3c(C(C)(C)C)coc32)oc1=O | inconclusive: 35.5 µM [activator, single point] | 
CCOCCC(=O)Nc1nnc(CCc2ccccc2)s1 |  | inactive: -1.58%
N#Cc1cccc(OCC(=O)NC(=O)NCc2ccccc2)c1 | inconclusive: 15.8 µM [activator, single point] | 
COc1ccccc1C(=O)ON=C1c2ccccc2-c2ccccc21 | inconclusive: 12.6 µM [activator, partial curve] | 
CC(C)=C1C2CCC1C(C(=O)Nc1sc(C)c(-c3ccc(C(C)C)cc3)c1C(N)=O)C2C(=O)O (stereo not given) | inconclusive: 31.6 µM [activator, single point] | 
CC(C)(C)NC(=O)CON=C1c2ccccc2-c2ccccc21 | inconclusive: 17.8 µM [activator, single point] | 
O=C(NC(=S)Nc1ccccc1N1CCCC1)c1ccc([N+](=O)[O-])cc1 | inconclusive: 31.6 µM [activator, single point] | 

The list continues.

SMILES | Potency | growth rescue (activation)
O=C(Nc1ccc(Cl)cc1C(=O)Nc1ccccn1)c1ccco1 | inconclusive: 11.2 µM [activator, partial curve] | 
Cn1c(C(=O)NCc2cccnc2)cc2sccc21 |  | inactive: -0.295%
CCOc1cc(CNn2cn[nH]c2=S)cc(Cl)c1OCc1ccccc1F | inconclusive: 35.5 µM [activator, single point] | 
Cc1ccc2cccc(Oc3ncnc4scc(-c5ccc(Cl)cc5)c34)c2n1 | inconclusive: 11.2 µM [activator, partial curve] | 
C=CCNc1nc(Nc2ccccc2F)nc(OCC)n1 |  | inactive: 12.6%
CC(C)c1ccc(NC2CCCN(C(=O)CC3CCCC3)C2)cc1 (stereo not given) | inconclusive: 35.5 µM [activator, partial curve] | 
COc1cccc2cc(C(=O)N3CC(C)OC(C)C3)c(=O)oc12 (stereo not given) |  | inactive: 2.6%
CC(C)(C)C1CCC2(CC1)NC(=S)N(c1ccccc1)N2 (stereo not given) |  | inactive: 12.7%
CC(C)CCNC(=O)c1cc([N+](=O)[O-])ccc1N1CCOCC1 |  | inactive: 1.25%
Cc1cc(C)n(CC(O)COc2c(C)cccc2C)n1 (stereo not given) |  | inactive: -4.9%
CSc1ncc(Cl)c(C(=O)Nc2cccnc2)n1 | inconclusive: 3.98 µM [activator, partial curve] | 
O=c1nc(-c2ccccc2)c2cc(SC(F)F)ccc2[nH]1 |  | inactive: 1.62%
Cc1cc(O)c(NC(=O)c2cc([N+](=O)[O-])ccc2Cl)cc1C | inconclusive: 35.5 µM [activator, partial curve, poor fit] | 
CNC(=S)N/N=C/c1cn(CCOc2cccc(OC)c2)c2ccccc12 | inconclusive: 35.5 µM [activator, single point] | 
CC(C)(C)c1ccc(-n2ncc3c2CCCC3NC(=O)C2(C(N)=O)CC2)cc1 (stereo not given) | inconclusive: 15.8 µM [activator, single point] | 
CCC(C)c1ccc(NC(=S)Nc2ccc(OC)cc2)cc1 (stereo not given) | inconclusive: 11.2 µM [activator, partial curve] | 
CC1CCc2cc(F)ccc2N1C(=O)CSc1nnc2c(n1)[nH]c1ccccc12 (stereo not given) | inconclusive: 12.6 µM [activator, single point] | 
CCCCC1=CC2=C(c3ccco3)C(=O)C(C)(OC(=O)c3ccc(OC)cc3)C(=O)C2=CN1C(CO)CO (stereo not given) | inconclusive: 5.62 µM [activator, single point] | 
CCc1ccccc1Nc1ccc(C(=O)O)cc1N |  | inactive: 23.8%
C#CCOCCOCCOCCNc1nc(N2CCN(C(=O)CCCCCCCCCCNC(=O)[C@@H](CCSC)n3cc(CCO)nn3)CC2)nc(N2CCN(C(=O)CCCCCCCCCCNC(=O)[C@@H]([C@H](C)O)n3cc(C)nn3)CC2)n1 |  | inactive: 0.657%
COc1ccc2nc(-c3ccccc3)[nH]c2c1 |  | inactive: 4.04%
CC1CCN(c2c(NCc3ccc(C(=O)N4CCN(C5CCCCC5)CC4)cc3)c(=O)c2=O)CC1 |  | inactive: 1.31%
